Literature values as cited in patent US20050249697A1, “Compositions and methods for the inhibition of bone growth and resorption” (priority 2003, published 2005).
At least one structure is not confirmed: it was looked up by name or label, or the drawing left a doubt.

Test system: calvaria bones
Details: systemic administration; mice; cited from earlier work

Cc1ccc(-c2cc(C(F)(F)F)nn2-c2ccc(S(N)(=O)=O)cc2)cc1 [celecoxib®, celecoxib]
effect on bone loss: reduced bone loss
